# Results deposited as PubChem BioAssay AID1259307 (Sanger Institute, 2017).
# Aim: 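Identify kinases needed for SW620 growth or enhancing BYL719, cetuximab or trametinib effects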 (primary screen)
# Cells: SW620 colorectal cancer cells
# Reagent: siRNA pool against human genes
# Treatment: anchor drugs BYL719 at 1 µM, cetuximab at 5 µg/ml or trametinib at 10 nM, each beside a DMSO vehicle arm
# Measurement: 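Cell viability in each well relative to non-targeting controls, averaged over replicates and turned into a robust z-score; synergy with BYL719 (1 µM), cetuximab (5 µg/ml), trametinib (10 nM) versus DMSO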
# Direction: viability robust z-score, no drug: higher = more viable cells
# Hit rule: 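a knock-down counts as lethal alone if its drug-free robust viability z-score is lower than -3, regardless of synergy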
# Calls: active = essential (lethal alone); inactive = no change alone
# In all, the deposit lists 794 reagents; this is an unselected part. Of all reagents, 15 (1.9%) are marked active. 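Calls reflect lethality without any drug; synergy scores did not enter the calls.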 Not all columns of the deposit are shown. Not given: the amount of reagent, the time to read-out.
target gene,"viability robust z-score, no drug",Call
MAP3K13 (GeneID 9175),0.736,inactive
MPP1 (GeneID 4354),0.162,inactive
UCK2 (GeneID 7371),0.736,inactive
PRKCD (GeneID 5580),0.736,inactive
DTYMK (GeneID 1841),0.222,inactive
THNSL1 (GeneID 79896),0.736,inactive
NRK (GeneID 203447),0.736,inactive
JAK2 (GeneID 3717),0.736,inactive
ETNK1 (GeneID 55500),0.736,inactive
PIP4K2C (GeneID 79837),-1.13,inactive
JAK1 (GeneID 3716),0.736,inactive
SLK (GeneID 9748),0.736,inactive
PEAK1 (GeneID 79834),0.736,inactive
MAPK13 (GeneID 5603),0.736,inactive
PCBP1 (GeneID 5093),0.681,inactive
NEK4 (GeneID 6787),-0.277,inactive
CDK1 (GeneID 983),0.736,inactive
MASTL (GeneID 84930),0.736,inactive
WHR1 (GeneID 8859),0.736,inactive
IDH2 (GeneID 3418),-0.0272,inactive

A stretch from the list above, as a working copy:
target gene,"viability robust z-score, no drug",Call
NRK (GeneID 203447),0.736,inactive
JAK2 (GeneID 3717),0.736,inactive
ETNK1 (GeneID 55500),0.736,inactive
